Test results taken from publication PMC12608094, “STN1 Shields CTC1 From TRIM32‐Mediated Ubiquitination to Prevent Cellular Aging” (Aging Cell, 2025).
Results are given in words; binding and its absence hold for the method and conditions named. Binding seen in cells or lysates may run through a third protein. Binding calls can cover weak binding; strength is not graded here. Where a sequence is shown, tags or fusion partners need not be part of it.

Columns and labels:
[1] = target: HA-tagged TRIM32 NHL domain alone (human); assay: co-IP; HEK293T lysates in NP-40 lysis buffer; HA-TRIM32 and mutants precipitated with HA beads, 4°C, 2 h; Flag-CTC1 detected by Western blot
[2] = target: HA-tagged TRIM32 NHL deletion mutant (ΔNHL) (human); assay: as above

- binding [1]: binds
- binding [2]: binds weakly
B1: Flag-tagged CTC1 (wild type) (protein, UniProt Q2NKJ3 1-1217)
chain: MAAGRAQVPSSEQAWLEDAQVFIQKTLCPAVKEPNVQLTPLVIDCVKTVWLSQGRNQGSTLPLSYSFVSVQDLKTHQRLPCCSHLSWSSSAYQAWAQEAGPNGNPLPREQLLLLGTLTDLSADLEQECRNGSLYVRDNTGVLSCELIDLDLSWLGHLFLFPRWSYLPPARWNSSGEGHLELWDAPVPVFPLTISPGPVTPIPVLYPESASCLLRLRNKLRGVQRNLAGSLVRLSALVKSKQKAYFILSLGRSHPAVTHVSIIVQVPAQLVWHRALRPGTAYVLTELRVSKIRGQRQHVWMTSQSSRLLLLKPECVQELELELEGPLLEADPKPLPMPSNSEDKKDPESLVRYSRLLSYSGAVTGVLNEPAGLYELDGQLGLCLAYQQFRGLRRVMRPGVCLQLQDVHLLQSVGGGTRRPVLAPCLRGAVLLQSFSRQKPGAHSSRQAYGASLYEQLVWERQLGLPLYLWATKALEELACKLCPHVLRHHQFLQHSSPGSPSLGLQLLAPTLDLLAPPGSPVRNAHNEILEEPHHCPLQKYTRLQTPSSFPTLATLKEEGQRKAWASFDPKALLPLPEASYLPSCQLNRRLAWSWLCLLPSAFCPAQVLLGVLVASSHKGCLQLRDQSGSLPCLLLAKHSQPLSDPRLIGCLVRAERFQLIVERDVRSSFPSWKELSMPGFIQKQQARVYVQFFLADALILPVPRPCLHSATPSTPQTDPTGPEGPHLGQSRLFLLCHKEALMKRNFCVPPGASPEVPKPALSFYVLGSWLGGTQRKEGTGWGLPEPQGNDDNDQKVHLIFFGSSVRWFEFLHPGQVYRLIAPGPATPMLFEKDGSSCISRRPLELAGCASCLTVQDNWTLELESSQDIQDVLDANKSLPESSLTDLLSDNFTDSLVSFSAEILSRTLCEPLVASLWMKLGNTGAMRRCVKLTVALETAECEFPPHLDVYIEDPHLPPSLGLLPGARVHFSQLEKRVSRSHNVYCCFRSSTYVQVLSFPPETTISIPLPHIYLAELLQGGQSPFQATASCHIVSVFSLQLFWVCAYCTSICRQGKCTRLGSTCPTQTAISQAIIRLLVEDGTAEAVVTCRNHHVAAALGLCPREWASLLDFVQVPGRVVLQFAGPGAQLESSARVDEPMTMFLWTLCTSPSVLRPIVLSFELERKPSKIVPLEPPRLQRFQCGELPFLTHVNPRLRLSCLSIRESEYSSSLGILASSC
